Source: PubChem BioAssay AID493014 (National Center for Advancing Translational Sciences (NCATS), 2011)
Some of the results follow. Shown are side measurements of this screen, not its main read-out; they come without a call. Most of these compounds were active or inconclusive in the main read-out, so they are no random draw. Words in brackets tell the shape of the fitted curve; partial curves, single points and poor fits give uncertain potencies.

Test: qHTS Assay to Find Inhibitors of Chronic Active B-Cell Receptor Signaling
Details: ABC-DLBCL IkBa-CBG/CBR reporter, luminescence ratio (green luciferase fused to IkBa over red control in TMD8 lymphoma cells), 4 h
How it was run: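 Compounds up to 46 uM were incubated four hours with TMD8 cells whose green CBG68 luciferase is fused to IkappaBalpha; red CBR luminescence normalised the signal, and concentration-effect curves were fitted to fusion, red and ratio data.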

[1] = measured here: CBR red luminescence, cell number
[2] = measured here: IkBa-CBG green luminescence

With O=C(NCC1CCN(C(=O)c2ccc([N+](=O)[O-])cc2)CC1)c1ccc([N+](=O)[O-])cc1 the AC50 [1] was 3.55 µM [falling, partial curve, poor fit].

For Nc1nc2nc(-c3ccccc3)cc(C(F)(F)F)c2s1, the AC50 [1] was 3.98 µM [rising, partial curve, poor fit].

For N=c1n(CC(=O)c2cccc([N+](=O)[O-])c2)c2ccccc2n1Cc1ccccc1, the AC50 [1] was 35.5 µM [falling, single point].

With Cc1ccc[n+](CC(=O)Nc2ccc([N+](=O)[O-])cc2Cl)c1 the AC50 [1] was 0.517 µM [rising, full curve, poor fit].

With CCOC(=O)c1sc(=NC(=O)c2cccc(Br)c2)n(C)c1C the AC50 [1] was 8.91 µM [falling, partial curve].

In the case of COC(=O)c1ccc2c(=O)n(CCCCCC(=O)N3CCN(c4cc(C)ccc4C)CC3)c(=O)[nH]c2c1, the AC50 [1] is reported as 7.08 µM [falling, full curve, poor fit].

With c1ccc2oc(-c3ccc4nc[nH]c4c3)nc2c1 the AC50 [1] was 16.4 µM [falling, single point].

In the case of CCc1cc2ccc(C)cc2nc1SCC(=O)Nc1c[nH]c(=O)[nH]c1=O, the AC50 [1] is reported as 11.2 µM [falling, partial curve, poor fit].

In the case of Cc1ccccc1Nc1nc(NCc2ccco2)c2ccccc2n1, the AC50 [1] is reported as 35.5 µM [falling, single point].

For FC(F)(F)c1cc(-c2ccco2)nc(NCc2cccnc2)n1, the AC50 [1] was 12.6 µM [falling, single point].

In the case of CC1(c2ccccc2Cl)NC(=O)N(CC(=O)N2CCc3ccccc3C2)C1=O (configuration not stated), the AC50 [1] is reported as 14.6 µM [falling, partial curve, poor fit].

In the case of O=C(Nc1ccccc1C(=O)N1CCCCC1)c1cccs1, the AC50 [1] is reported as 3.16 µM [falling, single point].

For CCCCC(CC)CNC(=O)CCCCn1c(=O)[nH]c2ccsc2c1=O (configuration not stated), the AC50 [1] was 35.5 µM [falling, single point].

In the case of COC(=O)[C@H](CCSC)NC(=O)Nc1cc(OC)cc(OC)c1, the AC50 [1] is reported as 0.794 µM [rising, full curve, poor fit].

In the case of CN(C)c1ccc(/C=C/C(=O)c2ccccc2)cc1[N+](=O)[O-], the AC50 [1] is reported as 20.6 µM [falling, single point].

For O=[N+]([O-])c1ccccc1N/N=C1\CC2CC=CC12 (configuration not stated), the AC50 [1] was 35.5 µM [rising, single point].

In the case of O=C(OCC(=O)N(CCc1ccccc1)Cc1ccccc1)c1ccccc1NCCO, the AC50 [1] is reported as 11.2 µM [falling, partial curve, poor fit].

With Cc1ccc(C(=O)CSc2nnnn2C(C)C)c(C)c1 the AC50 [1] was 20.6 µM [rising, single point].

In the case of CCOc1ccccc1NC(=O)c1cc(-c2cc(OC)c(OC)c(OC)c2)nc2ccccc12, the AC50 [1] is reported as 2.51 µM [falling, partial curve, poor fit].

In the case of COc1ccc2c(=O)c3c(=O)n(-c4ccccc4)c(-c4ccco4)nc3oc2c1, the AC50 [1] is reported as 0.58 µM [falling, full curve].

With O=C(CCSc1ccccc1)NC1CCCCCC1 the AC50 [1] was 12.6 µM [falling, partial curve].

With CCOc1ccc(S(=O)(=O)Nc2ccccc2C(=O)Nc2ccccc2N2CCOCC2)cc1 the AC50 [1] was 0.731 µM [rising, partial curve, poor fit].

For CCNS(=O)(=O)c1ccc(NC(=O)Nc2ccc3c(c2)OCO3)cc1, the AC50 [1] was 35.5 µM [falling, partial curve, poor fit].

In the case of CCCC(=O)OCC(=O)c1[nH]c(C)c(C(C)=O)c1C, the AC50 [1] is reported as 17.8 µM [rising, partial curve, poor fit].

In the case of CCOC(=O)C1=CN(Cc2ccco2)S(=O)(=O)N(CC)C1c1ccc(C(F)(F)F)cc1 (configuration not stated), the AC50 [1] is reported as 18.4 µM [falling, partial curve, poor fit] and the AC50 [2] is reported as 29.1 µM [rising, partial curve, poor fit].

For CC(C)(C)NC(=O)C(=O)NN=C1CCCCCC1, the AC50 [1] was 0.398 µM [rising, full curve, poor fit].

With O=C(Nc1nccs1)c1cc2c(s1)-c1ccccc1OC2 the AC50 [1] was 2.06 µM [falling, full curve, poor fit].

In the case of CC[C@@H](C)[C@H](NC(=O)CCc1c(C)c2cc3c4c(oc3c(C)c2oc1=O)CCCC4)C(=O)O, the AC50 [1] is reported as 1.12 µM [rising, partial curve, poor fit] and the AC50 [2] is reported as 3.55 µM [falling, partial curve].

With CCOc1cc(CNCCO)cc(Br)c1OCc1ccc(Cl)cc1 the AC50 [1] was 12.6 µM [falling, partial curve].

In the case of CCOC(=O)c1ccc(NC(=O)C(=O)NCC2CCCO2)cc1 (configuration not stated), the AC50 [1] is reported as 11.2 µM [falling, partial curve, poor fit].

For COc1ccc(-c2cc(N)n(S(=O)(=O)Cc3ccccc3)n2)c(OC)c1, the AC50 [1] was 23.1 µM [rising, partial curve].

With COc1ccc(NC(=O)CN(C)Cc2cccs2)cc1Cl the AC50 [1] was 8.91 µM [rising, partial curve].

In the case of Cc1cc(N/N=C/c2ccccc2)nc(N2CCOCC2)n1, the AC50 [1] is reported as 12.6 µM [falling, single point].

With CCCCn1nc(NC(=O)COC)c2cc3ccc(C)cc3nc21 the AC50 [1] was 15.8 µM [falling, single point].

With COc1cc(C(=O)Nc2ccc3oc(-c4cccnc4)nc3c2)cc(OC)c1OC the AC50 [1] was 0.708 µM [rising, full curve, poor fit].

In the case of COc1cc2c(cc1NC(=O)COCC(=O)O)oc1ccccc12, the AC50 [1] is reported as 10 µM [falling, partial curve].

For Cc1ccc(NC(=O)c2ccc(S(=O)(=O)N3CCOCC3)cc2)c(C)c1, the AC50 [1] was 0.0891 µM [rising, full curve, poor fit].

With C/C(=N\NC(=O)c1c(Cl)cnn1C)c1ccc(NC(=O)c2ccncc2)cc1 the AC50 [1] was 18.4 µM [falling, single point].

In the case of Cc1ccc(Nc2ncnc3sc(C)c(C)c23)cc1C, the AC50 [1] is reported as 29.1 µM [falling, single point].

For O=C(COc1cccc2c1CCN(Cc1ccc(Br)cc1)C2=O)N1CCOCC1, the AC50 [1] was 7.94 µM [falling, partial curve].

With N/C(=N\C(=S)Nc1ccccc1)c1ccccc1 the AC50 [1] was 10 µM [falling, single point].

For COCCNc1c(-c2ccc(O)cc2)nc2ccc(Cl)cn12, the AC50 [1] was 2.31 µM [falling, partial curve, poor fit].

In the case of O=C(NCc1ccco1)c1ccc2ccccc2c1, the AC50 [1] is reported as 16.4 µM [falling, partial curve].

For CCc1nnc(NC(=O)CSc2nnc(-c3c[nH]c4ccccc34)n2CC)s1, the AC50 [1] was 0.631 µM [falling, full curve, poor fit].

With O=C(O)CSCC(=O)Nc1cccc(C(F)(F)F)c1 the AC50 [1] was 20.6 µM [rising, single point].

With S=C(Nc1cccc(Cl)c1)NC1CCCCC1 the AC50 [1] was 1.41 µM [rising, partial curve, poor fit].

For CCCCN(Cc1nc2ccccc2c(=O)[nH]1)C(=O)CN1C(=O)NC2(CCCCC2)C1=O, the AC50 [1] was 1.64 µM [rising, full curve, poor fit].

For COc1cc(Br)c(/C=C/c2ccc3cccc(O)c3n2)cc1OC, the AC50 [1] was 7.08 µM [rising, full curve, poor fit] and the AC50 [2] was 10 µM [falling, partial curve, poor fit].

For CCCCN(C)CCNC(=O)c1ccc(Cn2c(=S)[nH]c3ccc(Br)cc3c2=O)cc1, the AC50 [1] was 7.08 µM [falling, partial curve, poor fit].

In the case of CCOC(=O)c1cc(-c2ccccc2)nc2c1c(C)nn2-c1ccccn1, the AC50 [1] is reported as 0.00517 µM [rising, full curve, poor fit].

In the case of CCOC(=O)c1ccc(NCc2ccc(N(C)C)cc2)cc1, the AC50 [1] is reported as 0.282 µM [falling, full curve].

For Cn1cccc1/C=N/n1cnnc1, the AC50 [1] was 23.1 µM [rising, single point].

With COc1ccc(Nc2nc3ccc(C)cn3c(=O)c2/C=N/O)cc1 the AC50 [1] was 5.01 µM [rising, full curve, poor fit].

For O=C(Cc1coc2ccc3ccccc3c12)Nc1nnc(C2CC2)s1, the AC50 [1] was 7.08 µM [falling, partial curve, poor fit].

In the case of Cc1nn(CC(=O)NCCc2ccccc2)c(=O)c2nn(-c3ccccc3)c(C)c12, the AC50 [1] is reported as 15.8 µM [rising, single point].

With COc1ccc(-c2nnc(SCC(=O)NCc3cccs3)n2C)cc1 the AC50 [1] was 23.1 µM [rising, single point].

In the case of CCc1nc2ccc(C(=O)N3CCN(c4cc(C)ccc4C)CC3)cc2nc1CC, the AC50 [2] is reported as 14.1 µM [rising, partial curve, poor fit].

In the case of CC(=O)NCCNC(=O)c1ccc(Sc2ccccc2)c([N+](=O)[O-])c1, the AC50 [1] is reported as 0.794 µM [rising, full curve, poor fit].

In the case of O=[N+]([O-])c1ccc2nc(CCCO)[nH]c2c1, the AC50 [1] is reported as 20 µM [rising, partial curve, poor fit].

In the case of Cc1nc2c(-c3ccc(F)cc3)c(C)nn2c(N2CCOCC2)c1C, the AC50 [1] is reported as 12.6 µM [rising, partial curve] and the AC50 [2] is reported as 3.98 µM [falling, partial curve, poor fit].

In the case of CCOC(=O)CSc1nnc(CSc2nc3ccccc3c(=O)[nH]2)n1-c1ccccc1, the AC50 [1] is reported as 13 µM [falling, partial curve, poor fit].

With CC1=C(C#N)C(c2cccnc2)C2=C(CC(c3ccc(Cl)cc3)CC2=O)N1 (configuration not stated) the AC50 [1] was 16.4 µM [falling, single point].

With NC(=O)N/N=C/c1cc(Br)ccc1OCC(=O)NCc1ccccc1 the AC50 [2] was 3.66 µM [rising, full curve, poor fit].
